Assay results from PMC5555194.

Amino acid sequences for entries named in this document (tags omitted). A change or cut given only in a name is not applied to a line headed by its entry. Residues count along the entry.
UniProt P08603, residues 19-1231: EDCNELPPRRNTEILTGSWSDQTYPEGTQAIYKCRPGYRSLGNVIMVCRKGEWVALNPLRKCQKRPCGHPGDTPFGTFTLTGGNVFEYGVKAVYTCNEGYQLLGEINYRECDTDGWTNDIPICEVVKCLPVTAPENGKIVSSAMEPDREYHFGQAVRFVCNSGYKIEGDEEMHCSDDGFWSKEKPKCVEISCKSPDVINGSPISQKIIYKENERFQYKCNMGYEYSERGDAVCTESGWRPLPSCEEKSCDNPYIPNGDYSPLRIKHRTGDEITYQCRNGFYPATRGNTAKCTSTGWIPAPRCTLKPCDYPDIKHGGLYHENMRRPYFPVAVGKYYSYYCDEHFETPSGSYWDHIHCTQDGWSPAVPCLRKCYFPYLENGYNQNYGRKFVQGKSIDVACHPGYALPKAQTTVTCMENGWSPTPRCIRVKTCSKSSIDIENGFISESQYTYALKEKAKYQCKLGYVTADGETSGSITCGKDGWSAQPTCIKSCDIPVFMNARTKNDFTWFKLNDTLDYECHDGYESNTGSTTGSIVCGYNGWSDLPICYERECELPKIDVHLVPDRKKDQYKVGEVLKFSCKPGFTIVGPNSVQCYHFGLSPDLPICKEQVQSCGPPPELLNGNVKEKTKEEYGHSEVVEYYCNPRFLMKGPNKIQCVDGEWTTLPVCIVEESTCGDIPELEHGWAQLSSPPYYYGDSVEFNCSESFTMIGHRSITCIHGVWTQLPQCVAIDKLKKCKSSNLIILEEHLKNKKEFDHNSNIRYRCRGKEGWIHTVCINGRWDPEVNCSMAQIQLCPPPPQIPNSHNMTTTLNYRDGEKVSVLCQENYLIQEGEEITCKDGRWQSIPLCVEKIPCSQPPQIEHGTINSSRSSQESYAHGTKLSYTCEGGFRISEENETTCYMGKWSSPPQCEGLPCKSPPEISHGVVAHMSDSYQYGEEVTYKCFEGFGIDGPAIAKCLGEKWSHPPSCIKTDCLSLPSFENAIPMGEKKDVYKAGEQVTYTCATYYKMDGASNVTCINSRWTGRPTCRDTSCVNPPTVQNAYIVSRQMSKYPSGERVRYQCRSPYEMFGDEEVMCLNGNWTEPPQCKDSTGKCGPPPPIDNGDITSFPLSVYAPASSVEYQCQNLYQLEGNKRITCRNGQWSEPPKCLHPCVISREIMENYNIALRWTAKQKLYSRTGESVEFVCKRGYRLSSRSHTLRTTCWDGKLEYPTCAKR

Target: V62-CFH (recombinant human complement factor H, variant Val-62, Tyr-402, Glu-936) (human) (UniProt P08603)
Test: SPR; 0.6 uM CFH premixed with 1.2 uM PspCN and flowed over amine-coupled C3b or C3d; binding of PspCN to CFH is concluded from the enhanced response; both purified

Which binding does the source give for “PspCN (S. pneumoniae choline-binding protein PspC, N-terminal domain) (from UniProt A0A0H2ZLS0) (domain or fragment)” here?
The binding was “binds”.

These are yes or no findings as the source states them, for the method shown. A result given as binding can be weak or reduced; the word gives no strength.
